{"source": "patent US20230051954A1", "binders": {"B1": {"name": "humanized anti-TfR Fab 5H12 (VH5-C33Y/Vk4) (Fab, V domains shown)", "VH": "QVQLVQSGAEVKKPGASVKVSCKASGYSFTDYYINWVRQAPGQGLEWMGWIYPGSGNTRYSERFKGRVTITRDTSASTAYMELSSLRSEDTAVYYCAREDYYPYHGMDYWGQGTLVTVSS", "VL": "DIVMTQSPDSLAVSLGERATINCRASESVDGYDNSFMHWYQQKPGQPPKLLIFRASNLESGVPDRFSGSGSGTDFTLTISSLQAEDVAVYYCQQSSEDPWTFGQGTKLEIKR"}}, "molecular_target": "recombinant human transferrin receptor 1 (human) (UniProt P02786)", "assay": "ELISA before and after 9 days at 40 C", "note": "Results are given in words; binding and its absence hold for the method and conditions named. Some entries that bind do so weakly or less than the wild type."}
{"binder": "B1", "values": [{"measurement": "binding", "value": "binds"}]}
